PubChem BioAssay AID1224826 | NIAID, 2016

- Aim: 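Genes that change LPS-induced Tnf promoter activity in mouse macrophages when knocked down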 (primary screen)
- Cell system: RAW264.7 G9 macrophages from mouse bearing reporters for p65 (GFP) and the Tnf promoter (mCherry)
- Reagents: siRNA pool against mouse genes, 100 nM
- Timing: 16 h of LPS stimulation, after 2 days of siRNA transfection
- Conditions: bacterial lipopolysaccharide (Salmonella minnesota R595), 10 ng/ml
- Measured: 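Nuclear mCherry signal of the Tnf promoter reporter measured by imaging after background removal, scaled to each plate median and turned into robust z-scores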
- Reading the numbers: Tnf reporter robust z-score: higher = stronger Tnf promoter reporter signal after LPS
- Hit rule: 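a well counts as active at a score of -1.3 or below (Tlr4 knock-down control median) or above 3 (raised signal); controls and wells holding fewer than 50 cells are excluded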
- Meaning of the calls: active = Tnf reporter clearly lowered or raised; inactive = no clear change in Tnf reporter
In all, the deposit lists about 17,000 reagents; this is an unselected part. About 1,110 of all reagents (6.6%) count as active. 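Active means lowered or raised reporter signal; replicate intensities are raw and not normalised per plate.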 Unmarked entries are inactive. Reagents against one gene are numbered here. Further read-outs or replicates are left out here. Reagent sequences are not shown.

| gene knocked down | reagent no. | Tnf reporter robust z-score | fewer than 50 cells in well |
| --- | --- | --- | --- |
| Cav1 | 1 | -1.5 (active) | enough cells in well |
| Utp6 | 1 | 0.23 | enough cells in well |
| Rabl3 | 1 | -0.01 | enough cells in well |
| Fgf16 | 1 | -0.27 | enough cells in well |
| Ddx19a | 1 | 0.67 | enough cells in well |
| Wdr6 | 1 | -0.89 | enough cells in well |
| Or5b124 | 1 | 1.06 | enough cells in well |
| Dscc1 | 1 | – | fewer than 50 cells per well; well left out of calls |
| Ccr1l1 | 1 | 1.38 | enough cells in well |
| Prr18 | 1 | 1.38 | enough cells in well |
| Thap11 | 1 | -1.18 | enough cells in well |
| Hepacam2 | 1 | 0 | enough cells in well |
| Cenpo | 1 | 0.72 | enough cells in well |
| Dhx35 | 1 | -0.54 | enough cells in well |
| Las1l | 1 | 0.45 | enough cells in well |
| Kank3 | 1 | 2.97 | enough cells in well |
| Terf2ip | 1 | 0.55 | enough cells in well |
| Smc1b | 1 | – | fewer than 50 cells per well; well left out of calls |
| Golph3 | 1 | 1.16 | enough cells in well |

The list goes on; the last 5 above are carried over.
| gene knocked down | reagent no. | Tnf reporter robust z-score | fewer than 50 cells in well |
| --- | --- | --- | --- |
| Las1l | 1 | 0.45 | enough cells in well |
| Kank3 | 1 | 2.97 | enough cells in well |
| Terf2ip | 1 | 0.55 | enough cells in well |
| Smc1b | 1 | – | fewer than 50 cells per well; well left out of calls |
| Golph3 | 1 | 1.16 | enough cells in well |
| A630091E08Rik | 1 | 0.7 | enough cells in well |
| Vmn1r177 | 1 | 1.36 | enough cells in well |
| Oasl1 | 1 | 0.14 | enough cells in well |
| Col5a1 | 1 | -0.82 | enough cells in well |
| Lins1 | 1 | 0.13 | enough cells in well |
| Col9a2 | 1 | -0.37 | enough cells in well |
| Slc25a26 | 1 | 1.01 | enough cells in well |
| Adgra1 | 1 | 0.29 | enough cells in well |
| Slc26a5 | 1 | 1.95 | enough cells in well |
| Map1lc3b | 1 | -0.83 | enough cells in well |
| Mpv17l | 1 | 0.66 | enough cells in well |
| Celf4 | 1 | 0.13 | enough cells in well |
| Pcdhb13 | 1 | -0.25 | enough cells in well |
| Gzmf | 1 | -1.27 | enough cells in well |
| Cplx3 | 1 | 0.08 | enough cells in well |
| Zscan21 | 1 | -1.47 (active) | enough cells in well |
| Pcdh1 | 1 | – | fewer than 50 cells per well; well left out of calls |
| Dcdc2a | 1 | 1.61 | enough cells in well |
| Usp20 | 1 | -0.44 | enough cells in well |
| Creb5 | 1 | 0.4 | enough cells in well |
| Creb5 | 2 | -0.68 | enough cells in well |
| Ero1a | 1 | 0.59 | enough cells in well |
| Acss3 | 1 | -0.03 | enough cells in well |
| Cdc7 | 1 | 2.05 | enough cells in well |
| Chordc1 | 1 | 0.92 | enough cells in well |
| Arl6ip4 | 1 | -1.14 | enough cells in well |
| Klhl24 | 1 | -0.51 | enough cells in well |
| Cdk5r1 | 1 | 0.5 | enough cells in well |
| Dph6 | 1 | 0.11 | enough cells in well |
| Amigo1 | 1 | -0.93 | enough cells in well |
| 4930578I06Rik | 1 | – | fewer than 50 cells per well; well left out of calls |
| Slc17a9 | 1 | 0 | enough cells in well |
| Sparcl1 | 1 | -0.53 | enough cells in well |
| Kctd5 | 1 | 0.63 | enough cells in well |
| Dhx15 | 1 | – | fewer than 50 cells per well; well left out of calls |
| Ugt2b1 | 1 | 0.16 | enough cells in well |
| Klf12 | 1 | 1.69 | enough cells in well |
| Prg3 | 1 | -0.08 | enough cells in well |
| Tbcd | 1 | -0.28 | enough cells in well |
